These are yes or no findings as the source states them, for the method shown. Binding seen in cells or lysates may run through a third protein. Some binding calls cover weakened binding; strength is not graded here. Sequences can lack the tags named with a protein.
Target: T1, FLAG-DGAT2 (diacylglycerol acyltransferase-2) (murine (said of the DGAT2 in BioId/DGAT2)) (UniProt Q9DCV3)
T1 sequence: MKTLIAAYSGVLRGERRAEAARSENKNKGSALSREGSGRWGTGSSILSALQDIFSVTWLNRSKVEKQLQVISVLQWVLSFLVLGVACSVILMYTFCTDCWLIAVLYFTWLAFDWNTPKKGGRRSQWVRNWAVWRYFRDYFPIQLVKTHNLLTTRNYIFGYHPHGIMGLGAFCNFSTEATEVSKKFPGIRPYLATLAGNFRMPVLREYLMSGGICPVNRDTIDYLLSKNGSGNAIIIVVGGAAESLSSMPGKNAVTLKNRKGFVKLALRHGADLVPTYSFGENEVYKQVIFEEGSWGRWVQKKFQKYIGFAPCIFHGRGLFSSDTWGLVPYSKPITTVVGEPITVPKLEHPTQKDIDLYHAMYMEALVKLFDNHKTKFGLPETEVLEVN
Experiment: co-IP; anti-FLAG agarose immunoprecipitate of HEK-293T cells expressing FL-DGAT2, solubilised with 0.5% CHAPS in PBS, 4 C, eluted with FLAG peptide; immunoblot with anti-calnexin and anti-PDI; control: cells expressing Myc-DGAT2

B1: calnexin (protein, UniProt P27824 21-592)
chain: HDGHDDDVIDIEDDLDDVIEEVEDSKPDTTAPPSSPKVTYKAPVPTGEVYFADSFDRGTLSGWILSKAKKDDTDDEIAKYDGKWEVEEMKESKLPGDKGLVLMSRAKHHAISAKLNKPFLFDTKPLIVQYEVNFQNGIECGGAYVKLLSKTPELNLDQFHDKTPYTIMFGPDKCGEDYKLHFIFRHKNPKTGIYEEKHAKRPDADLKTYFTDKKTHLYTLILNPDNSFEILVDQSVVNSGNLLNDMTPPVNPSREIEDPEDRKPEDWDERPKIPDPEAVKPDDWDEDAPAKIPDEEATKPEGWLDDEPEYVPDPDAEKPEDWDEDMDGEWEAPQIANPRCESAPGCGVWQRPVIDNPNYKGKWKPPMIDNPSYQGIWKPRKIPNPDFFEDLEPFRMTPFSAIGLELWSMTSDIFFDNFIICADRRIVDDWANDGWGLKKAADGAAEPGVVGQMIEAAEERPWLWVVYILTVALPVFLVILFCCSGKKQTSGMEYKKTDAPQPDVKEEEEEKEEEKDKGDEEEEGEEKLEEKQKSDAEEDGGTVSQEEEDRKPKAEEDEILNRSPRNRKPRRE
- binding: binds

Reference: publication PMC6322727
